Some of the results follow.
B1: il10ra_site1_sap_20_mot_HHH_b1_05357_000000034_0001_23_39_H_._HHH_b1_03033_0001_0000400019_0000002_0_0001_af2pred_0001 (protein)
chain: SSSSSRERAELILHLVRWLFEAGDEEAIKIFVKAIRDLYKKTGDPEIEKILEEAEELLEQLSSSS
B2: il10ra_site1_sap_23_mot_HHH_b2_00479_000000091_0001_1_12_H_._HHH_b1_06081_0001_0000500012_0000001_0_0001_af2pred_0001 (protein)
chain: SSSSSSDIEEEVERLLEEAEKIDDPLERSYVLVRAFAAANQNNNEELRRLVEEVAIKLTSSSSSS
B3: il10ra_site1_normal_mot_HHH_b2_02497_000000220_0001_1_20_H_._d4a0d7e14d3257bbacf2cba0c18c7893_0001_1_af2_0001_0000400025_0000001_0 (protein)
chain: DEEYELIREIIELAEDPELQRLLQLLIQFFIRGDPEVRELLEELVELLKQGDPEEAAELLKEFLK
B4: il10ra_site1_sap_25_mot_HHH_b1_02665_000000293_0001_1_18_H_._HHH_b1_05915_0001_0000100004_0000001_0_0001 (protein)
chain: SSSSSDEDEQHIRALLWFARYAPNPEAARMMLERALRLAEELGNEELLREAERLLEELNSSSSSS
B5: il10ra_site1_normal_mot_2b57f6184e3cbf08022d7a5dd7fdd81c_0001_af2_000000095_0001_34_50_H_._HHH_b1_00771_0001_0000300018_0000001_0 (protein)
chain: SSSSDELEEYAELALRFAEIAARNGDPETAKRILRVAIEALRNAGNPELVEELEELLEELSSSSS
B6: il10ra_site1_normal_mot_8756ee2cf497b5429c717dfc0c0bcfd6_0001_000000186_0001_1_13_H_._HHH_b2_07310_af2_0001_0000100002_0000001_0_1_af2pred_dldesign_0_af2pred (protein)
chain: SSSSSAEQERLKELIRRAAELLYAGRPEEAARLLAEAEELAKKLGNEVALRTLDYLRRHVESSSS
B7: il10ra_site1_sap_23_mot_HHH_b2_03220_af2_000000223_0001_23_40_H_._HHH_b1_07965_af2_0001_0000400006_0000002_0_0001 (protein)
chain: SSSSSEEERVEELLEEVEELRKEGDEKRAIEVLQEAVRLALRISDEELLQEIWEAAKALGSSSSS
B8: il10ra_site1_sap_15_mot_HHH_b1_02769_af2_000000118_0001_1_18_H_._HHH_b1_08389_0001_0000200013_0000001_0_0001 (protein)
chain: SSSSEEERIVELLFRAVEALANGNPEEAEKLVEEAEELARELGDEELERYIEIAKHFIEAHSSSS
B9: il10ra_site1_sap_20_mot_a6c796b944619e241e020fd597ddb6da_0001_af2_000000092_0001_15_31_H_._HHH_b2_01456_af2_0001_0000200013_0000002_0_0001 (protein)
chain: SSSDAREEVWELLREALELLANGDPEKAEEVIERARELAEEAGSRLFEHVIETLERQLELNSSSS
B10: il10ra_site1_normal_mot_8756ee2cf497b5429c717dfc0c0bcfd6_0001_000000186_0001_1_13_H_._HHH_b2_08062_af2_0001_0000200008_0000001_0 (protein)
chain: SSSSDEELEKLFELLRRIAELDHEGDKEEARELLEEAEELAKELGNDVARAQLEYLKELVNSSSS
B11: il10ra_site1_normal_mot_HHH_b1_00999_000000080_0001_41_55_H_._HHH_b2_06992_0001_0000100004_0000002_0 (protein)
chain: SSSSSSSEEEVEELLEEAKEIDDPKERNRVLLEALRIAIQNQNPELLRLVWEVVKRLGSSSSSSS
B12: il10ra_site1_normal_mot_HHH_b1_01880_000000285_0001_23_39_H_._HHH_b2_02582_0001_0000100002_0000002_0_af2pred_0001 (protein)
chain: SSSSSSDEFEELLEEAKRLAEEEGDEKIRIAIRIAERSYRESGDPKIKKLLKALLRLLSSSSSSS
B13: il10ra_site1_normal_mot_HHH_b1_03094_000000294_0001_1_20_H_._HHH_b1_08744_0001_0000100004_0000001_0 (protein)
chain: SSSSDEENQEALELSLEAVELLLRGNPEEAKEVLEEALELAERGNNERLARVIEDLLRVIDSSSS
B14: il10ra_site1_normal_mot_HHH_b1_02997_000000220_0001_39_52_H_._HHH_b1_04476_0001_0000500018_0000001_0_af2pred_dldesign_0_af2pred (protein)
chain: SSSSSSSNEEVVALLRRAMEEPDPEEAKRLAEEALRLAQANNNEILAHTAQLLLEQLESSSSSSS
B15: il10ra_site1_sap_15_mot_HHH_b1_03327_000000294_0001_1_19_H_._HHH_b1_01285_af2_0001_0000300013_0000001_0_0001 (protein)
chain: SSSSEEERVEELQEEIKELEEEGDYERVLRLLQEILRLIFQLGDKELLRRLWELLKKLAEERSSS
B16: il10ra_site1_normal_mot_1cde5897893f3d1588f92be3b001cdf2_0001_af2_000000130_0001_54_65_H_._HHH_b2_05489_0001_0000300015_0000001_1_af2pred_0001 (protein)
chain: SSSSSSDEEERAEELAREAEEIEDPHEAIRLLREAARLAAKTDNPELLKLVAEVAKKLLSSSSSS
B17: il10ra_site1_sap_3_mot_HHH_b2_06142_af2_000000101_0001_1_18_H_._HHH_b1_06736_0001_0000100001_0000002_0_0001_af2pred_dldesign_0_af2pred (protein)
chain: SSSSNPQEVVQLIHEARRLLDEGRLDEARAALDKARALAEALGDAELIAAVDKVRKLLEASSSSS
B18: il10ra_site1_normal_mot_8756ee2cf497b5429c717dfc0c0bcfd6_0001_000000186_0001_1_13_H_._HHH_b1_00068_0001_0000100008_0000002_0 (protein)
chain: SSSSDFELAQRAVELLAEVDEQGDEELLEEAREFVEEAIKEAKSDVIRVQLEYILRQLERSSSSS
B19: il10ra_site1_normal_mot_HHH_b1_04275_000000150_0001_22_39_H_._HHH_b1_06183_af2_0001_0000700027_0000002_0 (protein)
chain: SSSSSDQEVSRLLLRVFRLLLRGDEEEAEKLLEEAKRLAEELNDPRLEEAVRVVEEAFESSSSSS
B20: il10ra_site1_normal_mot_HHH_b2_04679_000000194_0001_21_38_H_._HHH_b2_07864_af2_0001_0000100014_0000001_1 (protein)
chain: SSSSTDEHQRLYRLLRELIELVSEGDEEEFEELLEEVKRLAEELNNFIIRFVVRLLERQLTSSSS
B21: il10ra_site1_normal_mot_HHH_b1_03094_000000294_0001_1_20_H_._HHH_b2_01952_af2_0001_0000100005_0000001_0 (protein)
chain: SSSSSEEEEKALELVLEALELALRGDPEEAERVLEEALEIAQELGNERLARIIEDLLQALESSSS
B22: il10ra_site1_sap_22_mot_HHH_b2_03891_000000295_0001_1_20_H_._HHH_b1_07341_af2_0001_0000400017_0000001_0_0001_af2pred_0001 (protein)
chain: SSSSSEEERVEELLEEAEQIPDPHEVSQLLAKALELAARAGNEELLRRILEIAIEILEEDSSSSS
B23: il10ra_site1_sap_18_mot_HHH_b2_00406_af2_000000109_0001_1_19_H_._HHH_b1_08169_0001_0000200009_0000001_0_0001_af2pred_0001 (protein)
chain: SSSSSRKEVLRLFIEAIQLLREGNPEEAEKVAEEVLELVEEIGDEALERAIRALLEMIRGSSSSS
B24: il10ra_site1_normal_mot_HHH_b1_05860_000000142_0001_1_19_H_._HHH_b2_02987_af2_0001_0000100006_0000001_0_af2pred_dldesign_0_af2pred (protein)
chain: SSSSNPNERVVALLRRAAELLAEGRPEEARELLEEARRLAEEANDPIALHAVDYLLRQVESSSSS
B25: il10ra_site1_normal_mot_HHH_b1_05357_000000034_0001_23_39_H_._HHH_b2_00942_af2_0001_0000300008_0000001_0 (protein)
chain: SSSSSELEEEVKELLEEAKRIEDLARASHVLIRAYALAVHNKDPELEELVREAAIEVAERRSSSS
B26: il10ra_site1_sap_19_mot_39a7b8d0c4c3fc04bafbda6ce6101d3a_0001_1_af2_000000014_0001_34_48_H_._HHH_b1_02094_0001_0000300034_0000001_0_0001 (protein)
chain: SSSSSDVAEELYELSREAMELLRNGNPEEARRVIEEAIELAEENNNMVFLVVLRFVLEQINSSSS
B27: il10ra_site1_sap_26_mot_HHH_b1_03859_af2_000000004_0001_44_57_H_._HHH_b2_01614_af2_0001_0000800031_0000001_0_0001 (protein)
chain: SSSSDELEEYVKIAARFAENAAKSGSPEIARRILEVMLEVLKRNNNPELFEEVEELLEELSSSSS
B28: il10ra_site1_normal_mot_HHH_b1_08176_000000188_0001_1_20_H_._HHH_b1_00383_af2_0001_0000700029_0000001_0 (protein)
chain: SSSSDEENQEALELSIHAFRLALRGNPEEAEELLRRALELAEEGGNERLARVIRELLQAIKSSSS
B29: il10ra_site1_sap_21_mot_HHH_b2_08172_af2_000000094_0001_41_56_H_._d0d27a57e4302dd0dd5ebafbde421892_0001_1_0001_0000100001_0000001_0_0001_af2pred_dldesign_0_af2p … (protein)
chain: SSSSSVEELAEQALRAARLALEAGDLEGARKALAIARKLAAQSPNAELKARIAALEAEIAASSSS
B30: il10ra_site1_normal_mot_HHH_b2_02736_000000092_0001_22_38_H_._HHH_b1_06879_af2_0001_0000900065_0000002_0 (protein)
chain: SSSSSEEAQRVYELLRRAIELHAEGDEEEAEKVLEEAEELAEKLNNEVFLFAIEFALRLLSSSSS
B31: il10ra_site1_normal_mot_05ca327611f5605f0dd8494b449afcbf_0001_1_000000248_0001_35_51_H_._HHH_b2_04665_0001_0000500015_0000001_0_af2pred_0001 (protein)
chain: SSSSSEESERVLELIREALHIEDPEEAREVLEEARELAEELNNPVLRIAIEFILRDIEAGSSSSS
B32: il10ra_site1_normal_mot_HHH_b2_06979_000000158_0001_42_57_H_._HHH_b1_00897_af2_0001_0000200012_0000003_0_af2pred_dldesign_0_af2pred (protein)
chain: SSSSSQADVQRIVALLREASEIEDPEKRRAVVEEAVALAEKLGNEILLRDARYLLADVEALSSSS
B33: il10ra_site1_normal_mot_HHH_b2_04275_000000272_0001_20_36_H_._HHH_b1_02375_af2_0001_0000400029_0000001_0 (protein)
chain: SSSSSEELQRLYELLREASELQHEGNPEEAEKVLEEAEELARELGNEVLLAVIRFLQRLASSSSS
B34: il10ra_site1_sap_26_mot_HHH_b2_06857_af2_000000179_0001_42_54_H_._HHH_b1_00069_af2_0001_0000100009_0000001_0_0001_af2pred_0001 (protein)
chain: SSSSSEEREEIYRLIREALELLANGNPEEAEEVLEEAERLAKEANSPLFEFALEAARRKVKSSSS
B35: il10ra_site1_sap_24_mot_HHH_b2_00066_000000124_0001_1_17_H_._HHH_b2_07485_0001_0000400008_0000001_0_0001 (protein)
chain: DVVEEVIEKLRKSGDPRLNQLAVSLWLMLHSPDPRFREAAEEVAELLLRGEISPEEAREILVELA
B36: il10ra_site1_normal_mot_HHH_b1_06057_000000129_0001_22_38_H_._HHH_b1_07369_0001_0000100008_0000001_0 (protein)
chain: SSSSTLEESVKFALRVAEQLLELGDPERARELLEKLLKLLEEAGDEELIERVEELLREVEESSSS
B37: il10ra_site1_sap_26_mot_d30c92881be5d2f229e465dffc40e224_0001_af2_000000108_0001_34_47_H_._aff62e40800cfbf30c5099bd910ef069_0001_0001_0000300014_0000001_0_0001 (protein)
chain: SSSSSDEDEREVEELIEELQRIEDTQEFARVYREAAELAWRHQDHEALQRVIRAAAEWIQSSSSS

biological target: il10ra, Q13651; test: yeast display titration

Apparent Kd, inactive:
B1 no binding seen
B2 no binding seen
B3 no binding seen
B4 no binding seen
B5 no binding seen
B6 no binding seen
B7 no binding seen
B8 no binding seen
B9 no binding seen
B10 no binding seen
B11 no binding seen
B12 no binding seen
B13 no binding seen
B14 no binding seen
B15 no binding seen
B16 no binding seen
B17 no binding seen
B18 no binding seen
B19 no binding seen
B20 no binding seen
B21 no binding seen
B22 no binding seen
B23 no binding seen
B24 no binding seen
B25 no binding seen
B26 no binding seen
B27 no binding seen
B28 no binding seen
B29 no binding seen
B30 no binding seen
B31 no binding seen
B32 no binding seen
B33 no binding seen
B34 no binding seen
B35 no binding seen
B36 no binding seen
B37 no binding seen

Copied from the entries so far (2 entries):
Apparent Kd, inactive:
B13 no binding seen
B14 no binding seen
